Experimental data taken from article PMC9262611.
These are yes or no findings as the source states them, for the method shown. Tags and fused reporters may be left off the sequences shown.

Molecular target: T1, RpoB yeast two-hybrid fusion (Arabidopsis thaliana) (UniProt P50546)
T1 sequence: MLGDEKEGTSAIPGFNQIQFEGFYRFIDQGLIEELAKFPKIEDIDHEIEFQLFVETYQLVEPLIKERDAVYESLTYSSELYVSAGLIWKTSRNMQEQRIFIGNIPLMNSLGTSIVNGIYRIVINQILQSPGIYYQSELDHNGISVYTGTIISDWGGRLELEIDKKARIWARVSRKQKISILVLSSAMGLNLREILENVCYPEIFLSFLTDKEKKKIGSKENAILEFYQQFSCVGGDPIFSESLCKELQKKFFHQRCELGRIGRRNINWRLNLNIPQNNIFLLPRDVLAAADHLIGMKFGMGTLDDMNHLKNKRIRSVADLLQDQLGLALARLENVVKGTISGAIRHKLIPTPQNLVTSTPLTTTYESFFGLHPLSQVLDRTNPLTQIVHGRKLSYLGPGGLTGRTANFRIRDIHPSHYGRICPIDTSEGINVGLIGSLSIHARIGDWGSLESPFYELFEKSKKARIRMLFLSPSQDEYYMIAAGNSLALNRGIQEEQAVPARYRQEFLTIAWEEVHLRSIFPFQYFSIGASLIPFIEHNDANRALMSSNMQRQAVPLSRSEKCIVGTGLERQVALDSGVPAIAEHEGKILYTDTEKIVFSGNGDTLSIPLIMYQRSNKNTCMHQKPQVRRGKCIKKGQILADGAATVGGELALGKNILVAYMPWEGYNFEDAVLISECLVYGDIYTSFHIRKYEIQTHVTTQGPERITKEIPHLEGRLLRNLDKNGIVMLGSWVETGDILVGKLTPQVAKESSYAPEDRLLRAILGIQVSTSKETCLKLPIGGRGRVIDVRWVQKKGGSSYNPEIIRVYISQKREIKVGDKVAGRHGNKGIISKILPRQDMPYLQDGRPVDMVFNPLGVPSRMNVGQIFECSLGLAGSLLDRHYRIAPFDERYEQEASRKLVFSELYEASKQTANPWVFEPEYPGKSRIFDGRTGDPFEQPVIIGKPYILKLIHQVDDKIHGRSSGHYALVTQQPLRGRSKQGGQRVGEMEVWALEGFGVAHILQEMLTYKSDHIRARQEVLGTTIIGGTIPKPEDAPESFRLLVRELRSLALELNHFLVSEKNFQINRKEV
Assay: two-hybrid; yeast Y2HGold, pGBKT7 bait and pGADT7 prey, growth on SD-Leu-Trp-His-Ade with X-α-Gal

binding: no binding
Substance: AD-AtNusG (Arabidopsis thaliana)
